We go through one substance from PMC5155150.

Protein sequences, listed by entry. Tags and fused reporters are not part of them. Residues count along the entry.
UniProt P12830, residues 731-882: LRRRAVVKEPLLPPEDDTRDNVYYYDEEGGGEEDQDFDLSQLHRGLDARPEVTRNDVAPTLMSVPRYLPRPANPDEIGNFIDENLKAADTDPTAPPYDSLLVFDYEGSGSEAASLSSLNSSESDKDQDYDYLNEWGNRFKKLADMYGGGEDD
UniProt P35222: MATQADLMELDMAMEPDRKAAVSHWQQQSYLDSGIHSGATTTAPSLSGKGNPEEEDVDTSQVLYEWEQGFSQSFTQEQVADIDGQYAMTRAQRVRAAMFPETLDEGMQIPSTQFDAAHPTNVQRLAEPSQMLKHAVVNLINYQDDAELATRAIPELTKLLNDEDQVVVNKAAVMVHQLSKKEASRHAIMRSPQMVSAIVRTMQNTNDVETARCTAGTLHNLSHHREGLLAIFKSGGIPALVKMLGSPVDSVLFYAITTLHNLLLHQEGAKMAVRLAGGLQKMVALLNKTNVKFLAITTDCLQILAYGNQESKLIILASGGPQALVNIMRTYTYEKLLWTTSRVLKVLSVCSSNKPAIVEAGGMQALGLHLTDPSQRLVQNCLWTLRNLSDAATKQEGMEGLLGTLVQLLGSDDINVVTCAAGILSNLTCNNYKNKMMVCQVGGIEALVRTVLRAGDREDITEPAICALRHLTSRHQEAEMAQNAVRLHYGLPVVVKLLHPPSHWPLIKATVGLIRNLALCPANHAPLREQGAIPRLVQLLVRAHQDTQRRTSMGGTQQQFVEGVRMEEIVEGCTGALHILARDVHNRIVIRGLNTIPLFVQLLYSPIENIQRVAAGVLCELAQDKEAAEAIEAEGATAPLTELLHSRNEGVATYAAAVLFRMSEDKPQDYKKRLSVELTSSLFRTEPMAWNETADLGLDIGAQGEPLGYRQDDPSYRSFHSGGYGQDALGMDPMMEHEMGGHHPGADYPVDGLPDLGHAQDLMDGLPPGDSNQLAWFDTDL

The target of the experiment is glutathione S-transferase-tagged cytosolic tail of E-cadherin (ECT) (UniProt P12830). The experiment is described as follows: pull-down; bead array-based GST pull-down; GST fusion proteins as baits; native hPSC lysates (150 mM NaCl, 50 mM Tris pH 7.4, 1% Triton X-100) after 24 h of CHIR treatment at the four CHIR/volume conditions; only the target purified.

These are yes or no findings as the source states them, for the method shown. Binding seen in cells or lysates may run through a third protein. Some binding calls cover weakened binding; strength is not graded here.

Turning to β-catenin (from UniProt P35222 1-781), the binding entry was “binds”.
